# Test results published in article PMC6733597.
# Results are given in words; binding and its absence hold for the method and conditions named. Tags and fused reporters may be left off the sequences shown.
# T1: endogenous unlabelled Spd-2 (Drosophila melanogaster (endogenous in embryos)) (UniProt Q9VV79)
# T1 sequence: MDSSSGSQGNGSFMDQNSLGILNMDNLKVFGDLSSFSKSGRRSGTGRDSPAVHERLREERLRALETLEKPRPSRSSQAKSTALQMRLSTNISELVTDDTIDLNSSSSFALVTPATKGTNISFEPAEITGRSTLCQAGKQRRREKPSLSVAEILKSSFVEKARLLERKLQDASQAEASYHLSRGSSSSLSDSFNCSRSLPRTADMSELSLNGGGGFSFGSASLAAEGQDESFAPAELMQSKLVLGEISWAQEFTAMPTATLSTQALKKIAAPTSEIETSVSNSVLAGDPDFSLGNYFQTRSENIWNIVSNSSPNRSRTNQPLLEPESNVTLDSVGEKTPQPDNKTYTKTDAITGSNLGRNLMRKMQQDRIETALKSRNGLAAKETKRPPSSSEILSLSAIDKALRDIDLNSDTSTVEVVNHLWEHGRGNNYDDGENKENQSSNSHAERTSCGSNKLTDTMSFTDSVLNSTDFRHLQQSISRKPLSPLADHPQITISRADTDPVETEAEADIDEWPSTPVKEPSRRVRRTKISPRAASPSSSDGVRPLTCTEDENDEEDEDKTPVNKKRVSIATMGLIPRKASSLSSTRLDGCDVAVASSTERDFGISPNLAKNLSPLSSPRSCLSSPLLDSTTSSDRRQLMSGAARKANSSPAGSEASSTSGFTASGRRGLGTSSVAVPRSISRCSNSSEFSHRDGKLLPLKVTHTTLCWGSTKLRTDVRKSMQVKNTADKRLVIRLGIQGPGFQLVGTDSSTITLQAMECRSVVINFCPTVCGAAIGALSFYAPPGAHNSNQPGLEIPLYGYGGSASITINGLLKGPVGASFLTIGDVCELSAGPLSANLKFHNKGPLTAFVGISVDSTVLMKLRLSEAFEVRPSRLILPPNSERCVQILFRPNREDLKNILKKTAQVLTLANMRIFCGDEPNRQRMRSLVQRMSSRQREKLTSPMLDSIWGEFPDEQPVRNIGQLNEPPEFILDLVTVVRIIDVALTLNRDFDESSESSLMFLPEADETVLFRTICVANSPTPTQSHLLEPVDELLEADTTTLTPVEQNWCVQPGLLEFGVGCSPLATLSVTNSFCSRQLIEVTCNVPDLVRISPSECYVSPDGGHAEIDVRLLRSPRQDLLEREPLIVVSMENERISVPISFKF
# B1: Spd-2-GFP (protein, UniProt Q9VV79 1-1146)
# chain: T1 sequence
# Legend:
# [1] = molecular target: T1, endogenous unlabelled Spd-2 (Drosophila melanogaster (endogenous in embryos)); assay: fluorescence correlation spectroscopy (FCS), count-rate per molecule; living embryos, cytoplasm, nuclear cycles 11-14 at the beginning of S-phase, 25 C; CPM of Spd-2-GFP compared with monomeric GFP, and between embryos with only Spd-2-GFP and embryos with one copy of Spd-2-GFP and one of the endogenous gene
# [2] = molecular target: Spd-2-GFP (Drosophila melanogaster) (UniProt Q9VV79); assay: as above
binder,measurement,setting,value
B1,binding,[1],no binding
same,binding,[2],no binding
